Results published in doi:10.1101/2021.10.11.463801.
Where two headings read alike, the source gives them in different places. Results are given in words; binding and its absence hold for the method and conditions named. For some assays here: Binding can be weak; no strength is given. For some assays here: Where a sequence is shown, tags or fusion partners need not be part of it.

What was measured:
[1] = biological target: T1, MBP-tagged JIP3[1-108] (human) (UniProt Q9UPT6); test: pull-down
T1 sequence: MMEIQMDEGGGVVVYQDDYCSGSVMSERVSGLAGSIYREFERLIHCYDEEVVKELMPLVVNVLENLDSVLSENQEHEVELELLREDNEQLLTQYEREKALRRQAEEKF

[2] = biological target: T1, MBP-tagged JIP3[1-108] (human); test: pull-down; remark: listed apart in the source
DLIC1[388-523] (human) [3] = test: SEC
[4] = biological target: GST::KIF5C[807-956] (mouse); test: SEC
[5] = biological target: DLIC1[388-523] F447A/F448A (human); test: ITC
[6] = biological target: GST-tagged DLIC1[388-523] (human); test: pull-down
[7] = biological target: GST::KIF5C[807-956] (mouse); test: pull-down
DLIC1[388-523] (human) [8] = test: ITC
[9] = biological target: GST::DLI-1[369-442] (C. elegans); test: pull-down
[10] = biological target: UNC-116[675-815] (C. elegans); test: pull-down

In the case of “GST::KIF5C[807-956] (mouse) (domain or fragment)”, the binding [1] is reported as “binds” and the binding [2] is reported as “binds”.

With “DLIC1[388-523] (human) (domain or fragment)” the binding [1] was “binds” and the binding [2] was “binds”.

B1: JIP3[1-108] (domain or fragment, UniProt Q9UPT6-1 1-108)
chain: MMEIQMDEGGGVVVYQDDYCSGSVMSERVSGLAGSIYREFERLIHCYDEEVVKELMPLVVNVLENLDSVLSENQEHEVELELLREDNEQLLTQYEREKALRRQAEEKF
With B1 the binding (DLIC1[388-523] (human) [3]) was “binds”, the binding [4] was “binds” and the binding [5] was “no binding”. The binding [6] was “binds” and the binding [7] was “binds”.

B2: JIP3[1-108] V60Q (domain or fragment, UniProt Q9UPT6-1 1-108)
chain: MMEIQMDEGGGVVVYQDDYCSGSVMSERVSGLAGSIYREFERLIHCYDEEVVKELMPLVQNVLENLDSVLSENQEHEVELELLREDNEQLLTQYEREKALRRQAEEKF
In the case of B2, the binding (DLIC1[388-523] (human) [3]) is reported as “no binding”, the binding [4] is reported as “binds” and the binding (DLIC1[388-523] (human) [8]) is reported as “no binding”. For the same molecule, the binding [6] was “no binding” and the binding [7] was “binds”.

B3: MBP::UNC-16[1-120] (domain or fragment, UniProt P34609-1 1-120)
chain: MACNLSPVNEMADSITSSTPSEIVYGGPGSPDEHRTMSDKVQTMASAIYRELETMIKVHGEDGVKTLMPLVVNVLEALDLAYLERDEQTAELEMLKEDNEQLQTQYEREKALRKQTEQKY
B3 was tested, and the binding [9] was “binds” and the binding [10] was “binds”.

B4: MBP::UNC-16[1-120] V72Q (domain or fragment, UniProt P34609-1 1-120)
chain: MACNLSPVNEMADSITSSTPSEIVYGGPGSPDEHRTMSDKVQTMASAIYRELETMIKVHGEDGVKTLMPLVQNVLEALDLAYLERDEQTAELEMLKEDNEQLQTQYEREKALRKQTEQKY
With B4 the binding [9] was “no binding” and the binding [10] was “binds”.

B5: JIP4[1-103] (domain or fragment, UniProt O60271-1 1-103)
chain: MELEDGVVYQEEPGGSGAVMSERVSGLAGSIYREFERLIGRYDEEVVKELMPLVVAVLENLDSVFAQDQEHQVELELLRDDNEQLITQYEREKALRKHAEEKF
For B5, the binding [5] was “no binding”.

B6: JIP4[1-103] V55Q (domain or fragment, UniProt O60271-1 1-103)
chain: MELEDGVVYQEEPGGSGAVMSERVSGLAGSIYREFERLIGRYDEEVVKELMPLVQAVLENLDSVFAQDQEHQVELELLRDDNEQLITQYEREKALRKHAEEKF
With B6 the binding (DLIC1[388-523] (human) [8]) was “no binding”.
